Laboratory results: patent US20090181009A1 (ARCA BIOPHARMA, published 2009)
These are yes or no findings as the source states them, for the method shown. Some binding calls cover weakened binding; strength is not graded here.

Biological target: NTB-A extracellular domain fused to a C-terminal tag of V5-His (NTB-A-ECD-V5His) (human)
Assay: SPR (BIAcore), mAb captured by anti-mouse mAb, antigen from 46 nM in 3-fold dilutions, 25 C [D]

binding: binds
B1: anti-NTB-A monoclonal antibody 994.1 (antibody, mouse IgG2b, V domains shown)
VH: QIQLVQSGPDLKNPGKTVKISCKASGYTFTNFGMNWVKQSPERGLKWMGWINTYNGKPTYADDFKGQFAFSLETSATTAYLQINNLKNEDTAAYFCAKRGGTVDFGYWGQGTTLTVSS
VL: EVVLTQSPTTMAASPGEKITVTCSASSPISSNFLHWYQQKPGFSPKLFIYRTSILASGVPARFSGSGSGTSFSLTIGAMEAEDVAAYYCQQGIYMPLTFGAGTKLELKR
notes: Murine IgG2b from a hybridoma; also called ATCC Deposit No. PTA-7831
